This data set is described as follows: general procedure: Fmoc solid-phase peptide synthesis. The settings on record: whole synthesis, TFA; for final HPLC purity: UPLC, Acquity UPLC BEH C18, PDA 210-500 nm.

Plain letter strings leave the end groups untold.

Turning to “KGIMKEKKSLVRLSSCVPVALMSA (Modified peptide)”, the “final HPLC purity” value is listed as 97%.

Turning to “KCIMKEKKSLVRLSSCVPVALMSAMTTSSSQKN (listed as Homo sapiens)”, where the note is “PDA 210-500 nm”, the “crude HPLC purity” value is recorded as “around 75%”. In addition, for the setting “run 1”, the difficulty met entry was “Only very small amounts of the desired peptide were obtained, and analysis by UPLC found that the peptide was impure”; the “final HPLC purity” value was “about 90%”. For the same sequence, for the setting “run 2”, the difficulty met result was “Again, only very small amounts of purified fsp5 (SEQ ID NO: 3) were obtained” and the “final HPLC purity” value is reported as “below 50%”.

For the sequence “KCIMKEKKSLVRLSSCVPVALMSA (listed as Homo sapiens)”, the “final HPLC purity” value was 96%.

For SSGVPVALMSAMTTSSSQKN (Modified peptide), the “final HPLC purity” value is given as 91.9%.

With SSCVPVALMSAMTTSSSQKN, the “final HPLC purity” value was 94.8%.

Source of the values: US20220213170A1 (Hubro Therapeutics AS, priority 2019, published 2022).
